Source: PubChem BioAssay AID264 (DTP/NCI, 2004)
The list is a part of this screen's results and no random one: it gathers tests that were run many times, whatever their T/C, doses with no T/C, and many T/C values between a quarter and a half above the control. Further doses and runs are listed elsewhere. T/C gives the treated animals as a percentage of the vehicle group. Schedule codes are those of the source, read here as Q, the interval in days (D) or hours (H), X, the number of doses. Some T/C values are followed by the survivors on the day toxicity was checked, most often the fifth; where none is given, no animal had died by that day. Some entries give survivors of the animals treated and no T/C: the source holds a T/C of zero for them, seemingly a mark for toxic or unscored doses. Counts of survivors are from the toxicity check (mostly the fifth day) where no day follows; animals may have died later. Numbered stars: 1 amine (or outer) side, 2 acyl side, 3 side chain; on linkers, the order of the positions; unused ones are H or OH. Bridge positions count the residues as written; N and C are the ends. Square brackets hold non-standard residues; d marks the D form. Peptide text beside a SMILES is read from it. I, II: the chains in the order shown. Actinocin(1to9) = Cc1c2oc3c(C)ccc(C(=O)[*:2])c3nc-2c(C(=O)[*:1])c(N)c1=O; NMeV = CN[CH](C(=O)O)C(C)C; Aze = O=C(O)[CH]1CCN1; Sar = CNCC(=O)O

Test system: nude mice, LX-1 lung xenograft intrarenal, tumor weight T/C
Experiment: NCI In Vivo Anticancer Drug Screen. Data for tumor model Human Lung LX-1 Xenograft (intrarenal inoculation) in NU/NU Swiss (nude) mice
Details: T/C endpoint: mean tumor weight change, higher T/C = larger tumour; for T/C: evaluated on day 11
Method in brief: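 In vivo, transplantable tumor; compound vs vehicle arms; tumor size measured; value = T/C.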

[1] = dose: 200.0 mg/kg/injection, schedule: Q01DX010 (sc), vehicle: saline
[2] = dose: 300.0 mg/kg/injection, schedule: Q04DX003 (sc), vehicle: saline with Tween-80
[3] = dose: 50.0 mg/kg/injection, schedule: Q01DX010 (sc), vehicle: saline
[4] = dose: 100.0 mg/kg/injection, schedule: Q01DX010 (sc), vehicle: saline

C(CC1CO1)C1CO1 (configuration not stated)
survivor count [1]: 1 of 3 on day 11 | survivor count (dose: 400.0 mg/kg/injection, schedule: Q04DX003 (sc), vehicle: saline): 0 of 6 on day 11 | survivor count (dose: 800.0 mg/kg/injection, schedule: Q04DX003 (sc), vehicle: saline): 0 of 6 on day 11 | survivor count (dose: 1600.0 mg/kg/injection, schedule: Q04DX003 (sc), vehicle: saline): 0 of 6 on day 11 | survivor count (dose: 3200.0 mg/kg/injection, schedule: Q04DX003 (sc), vehicle: saline): 0 of 6 on day 11

CCCCCCCCSC1=C(Cl)C(=O)C(OC)=C(OC)C1=O
survivor count (dose: 288.0 mg/kg/injection, schedule: Q04DX003 (sc), vehicle: saline with Tween-80): 0 of 6 on day 11

O=C(Nc1ccc(C2=NCCN2)cc1)c1ccc(C(=O)Nc2ccc(C3=NCCN3)cc2)c(Cl)c1
survivor count (dose: 100.0 mg/kg/injection, schedule: Q01DX010 (sc), vehicle: water): 0 of 3 on day 11

CC1=CC(=NN=c2cc(C)n([O-])c(C)c2)C=C(C)[N+]1=O
T/C (dose: 600.0 mg/kg/injection, schedule: Q04DX003 (sc), vehicle: suspension in saline): 138 % of control | T/C (dose: 2400.0 mg/kg/injection, schedule: Q04DX003 (sc), vehicle: suspension in saline): 144 % of control [5 of 6 alive on day 11]

CN=C(N)N/N=C(\C)c1ccc2oc3ccc(/C(C)=N/NC(N)=NC)cc3c2c1
survivor count [2]: 2 of 6 on day 11 | survivor count (dose: 600.0 mg/kg/injection, schedule: Q04DX003 (sc), vehicle: saline with Tween-80): 1 of 5 on day 11

CN(C)N=Nc1ccccc1
survivor count (dose: 100.0 mg/kg/injection, schedule: Q01DX010 (sc), vehicle: Klucel (hydroxypropylcellulose) (HPC)): 0 of 3 on day 11

CC(=O)C1(O)Cc2c(O)c3c(c(O)c2C(OC2CC(N)C(O)C(C)O2)C1)C(=O)c1ccccc1C3=O (configuration not stated)
T/C (dose: 1.0 mg/kg/injection, schedule: Q04DX003 (sc), vehicle: water): 140 % of control | T/C (dose: 2.0 mg/kg/injection, schedule: Q04DX003 (sc), vehicle: water): 144 % of control [4 of 6 alive on day 11] | survivor count (dose: 4.0 mg/kg/injection, schedule: Q04DX003 (sc), vehicle: water): 0 of 6 on day 11

C=CC(=O)NCNC(=O)C=C
survivor count [3]: 1 of 3 on day 11 | survivor count [1]: 1 of 3 on day 11

O=C(O)CC(NC(=O)CP(=O)(O)O)C(=O)O (configuration not stated)
T/C [4]: 130 % of control [2 of 2 alive on day 11] | survivor count (dose: 800.0 mg/kg/injection, schedule: Q01DX010 (sc), vehicle: saline): 0 of 2 on day 11

COc1cc([C@@H]2c3cc4c(cc3[C@@H](OC3OC5CO[C@@H](c6cccs6)OC5C(O)C3O)[C@H]3COC(=O)[C@H]23)OCO4)cc(OC)c1O (some centres not stated)
T/C (dose: 66.0 mg/kg/injection, schedule: Q01DX010 (sc), vehicle: saline): 134 % of control

COc1cccc2c1C(=O)c1c(O)c3c(c(O)c1C2=O)C[C@@](O)(/C(C)=N\NC(=O)CO)C[C@@H]3OC1CC(N)C(O)C(C)O1 (some centres not stated)
survivor count (dose: 12.5 mg/kg/injection, schedule: Q01DX010 (sc), vehicle: saline): 0 of 3 on day 11 | survivor count (dose: 25.0 mg/kg/injection, schedule: Q01DX010 (sc), vehicle: saline): 0 of 3 on day 11 | survivor count [3]: 0 of 3 on day 11 | survivor count [4]: 0 of 3 on day 11

O=c1[nH]cc(F)c(=O)[nH]1
T/C (dose: 20.0 mg/kg/injection, schedule: Q01DX010 (sc), vehicle: saline): 130 % of control [2 of 3 alive on day 11] | survivor count (dose: 40.0 mg/kg/injection, schedule: Q01DX010 (sc), vehicle: saline): 0 of 2 on day 11 | survivor count (dose: 80.0 mg/kg/injection, schedule: Q01DX010 (sc), vehicle: saline): 0 of 3 on day 11

Cc1cc2nc3c(=O)[nH]c(=O)nc-3n(CC(O)C(O)C(O)C(O)CO)c2cc1C (configuration not stated)
survivor count (dose: 800.0 mg/kg/injection, schedule: Q01DX010 (sc), vehicle: saline with Tween-80): 1 of 3 on day 11

CNC(=O)c1cccc2c(Nc3ccc(NS(C)(=O)=O)cc3OC)c3cccc(C)c3nc12
survivor count (dose: 100.0 mg/kg/injection, schedule: Q04DX003 (sc), vehicle: water): 1 of 3 on day 11 | survivor count (dose: 200.0 mg/kg/injection, schedule: Q04DX003 (sc), vehicle: water): 0 of 3 on day 11

Cc1ncc(CNC(=O)N(CCCl)N=O)c(N)n1
survivor count (dose: 37.5 mg/kg/injection, schedule: Q04DX003 (sc), vehicle: saline): 3 of 6 on day 11 | survivor count (dose: 75.0 mg/kg/injection, schedule: Q04DX003 (sc), vehicle: saline): 0 of 6 on day 11 | survivor count (dose: 150.0 mg/kg/injection, schedule: Q04DX003 (sc), vehicle: saline): 0 of 6 on day 11

CC1(C)OC1CS(=O)c1ccccc1 (configuration not stated)
T/C [2]: 139 % of control | survivor count (dose: 2400.0 mg/kg/injection, schedule: Q04DX003 (sc), vehicle: saline with Tween-80): 1 of 6 on day 11

CCC[P+](c1ccccc1)(c1ccccc1)c1ccccc1
survivor count [2]: 1 of 6 on day 11

COc1c(CNC(=O)CCl)cc2[nH]c(C)cc2c1CNC(=O)CCl
T/C (dose: 50.0 mg/kg/injection, schedule: Q01DX010 (sc), vehicle: Klucel (hydroxypropylcellulose) (HPC)): 128 % of control | survivor count (dose: 2400.0 mg/kg/injection, schedule: Q04DX003 (sc), vehicle: Klucel (hydroxypropylcellulose) (HPC)): 3 of 6 on day 11

CN(C(=S)S(=O)(=O)C12CC3CC(CC(C3)C1)C2)c1ccccc1
T/C (dose: 200.0 mg/kg/injection, schedule: Q04DX003 (sc), vehicle: Klucel (hydroxypropylcellulose) (HPC)): 147 % of control [5 of 6 alive on day 11]

OC(C1CO1)C(O)C1CO1 (configuration not stated)
survivor count (dose: 4.0 mg/kg/injection, schedule: Q01DX010 (sc), vehicle: saline): 0 of 3 on day 11 | survivor count (dose: 8.0 mg/kg/injection, schedule: Q01DX010 (sc), vehicle: saline): 0 of 3 on day 11

O=[Te]=O
T/C (dose: 25.0 mg/kg/injection, schedule: Q04DX003 (sc), vehicle: suspension in saline): 136 % of control | survivor count (dose: 50.0 mg/kg/injection, schedule: Q04DX003 (sc), vehicle: suspension in saline): 1 of 6 on day 11 | survivor count (dose: 100.0 mg/kg/injection, schedule: Q04DX003 (sc), vehicle: suspension in saline): 0 of 6 on day 11

Cc1c2oc3c(C)ccc(C(=O)NC4C(=O)NC(C(C)C)C(=O)N5CCCC5C(=O)N(C)CC(=O)N(C)C(C(C)C)C(=O)OC4C)c3nc-2c(C(=O)NC2C(=O)NC(C(C)C)C(=O)N3CCC3C(=O)N(C)CC(=O)N(C)C(C(C)C)C(=O)OC2C)c(N)c1=O (configuration not stated) (I: TV[Aze][Sar][NMeV] / II: TVP[Sar][NMeV]; ester I:1-I:C, II:1-II:C; linker I:N-II:N via Actinocin(1to9); configuration not given here)
survivor count (dose: 2.0 mg/kg/injection, schedule: Q04DX003 (sc), vehicle: saline + alcohol): 0 of 6 on day 11

OCC1OC(n2cnc3cncnc32)C(O)C1O (configuration not stated)
survivor count (dose: 100.0 mg/kg/injection, schedule: Q04DX003 (sc), vehicle: saline): 2 of 6 on day 11

CC(=O)[O][Pb]([O]C(C)=O)([c]1ccccc1)[c]1ccccc1
survivor count (dose: 400.0 mg/kg/injection, schedule: Q01DX010 (sc), vehicle: Klucel (hydroxypropylcellulose) (HPC)): 1 of 3 on day 11
